No constants are given. Whether binding was seen depends on the method and setting. Binding seen in cells or lysates may run through a third protein. Some entries that bind do so weakly or less than the wild type. For some of these results: Sequences can lack the tags named with a protein.

Protein sequences, listed by entry. Tags and fused reporters are not part of them.
UniProt Q15022: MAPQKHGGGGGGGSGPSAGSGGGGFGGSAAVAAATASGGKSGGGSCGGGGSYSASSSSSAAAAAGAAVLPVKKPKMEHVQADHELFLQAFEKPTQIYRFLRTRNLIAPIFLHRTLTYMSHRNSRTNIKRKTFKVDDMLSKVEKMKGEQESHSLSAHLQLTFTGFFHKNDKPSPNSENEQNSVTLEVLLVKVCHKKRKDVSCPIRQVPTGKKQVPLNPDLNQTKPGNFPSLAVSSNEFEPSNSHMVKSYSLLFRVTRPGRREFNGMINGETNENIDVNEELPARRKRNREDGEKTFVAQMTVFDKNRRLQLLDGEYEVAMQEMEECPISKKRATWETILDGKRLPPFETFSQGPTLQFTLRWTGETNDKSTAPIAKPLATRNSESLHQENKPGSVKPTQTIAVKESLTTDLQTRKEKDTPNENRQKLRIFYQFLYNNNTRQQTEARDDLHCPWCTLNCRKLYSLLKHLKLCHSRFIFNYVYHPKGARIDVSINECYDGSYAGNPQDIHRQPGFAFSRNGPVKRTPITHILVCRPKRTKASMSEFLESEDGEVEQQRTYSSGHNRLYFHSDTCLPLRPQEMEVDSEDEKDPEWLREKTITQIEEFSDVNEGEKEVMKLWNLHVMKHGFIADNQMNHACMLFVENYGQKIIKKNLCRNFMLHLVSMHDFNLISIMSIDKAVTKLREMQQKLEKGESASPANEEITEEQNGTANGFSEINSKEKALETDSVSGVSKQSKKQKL
UniProt P40763: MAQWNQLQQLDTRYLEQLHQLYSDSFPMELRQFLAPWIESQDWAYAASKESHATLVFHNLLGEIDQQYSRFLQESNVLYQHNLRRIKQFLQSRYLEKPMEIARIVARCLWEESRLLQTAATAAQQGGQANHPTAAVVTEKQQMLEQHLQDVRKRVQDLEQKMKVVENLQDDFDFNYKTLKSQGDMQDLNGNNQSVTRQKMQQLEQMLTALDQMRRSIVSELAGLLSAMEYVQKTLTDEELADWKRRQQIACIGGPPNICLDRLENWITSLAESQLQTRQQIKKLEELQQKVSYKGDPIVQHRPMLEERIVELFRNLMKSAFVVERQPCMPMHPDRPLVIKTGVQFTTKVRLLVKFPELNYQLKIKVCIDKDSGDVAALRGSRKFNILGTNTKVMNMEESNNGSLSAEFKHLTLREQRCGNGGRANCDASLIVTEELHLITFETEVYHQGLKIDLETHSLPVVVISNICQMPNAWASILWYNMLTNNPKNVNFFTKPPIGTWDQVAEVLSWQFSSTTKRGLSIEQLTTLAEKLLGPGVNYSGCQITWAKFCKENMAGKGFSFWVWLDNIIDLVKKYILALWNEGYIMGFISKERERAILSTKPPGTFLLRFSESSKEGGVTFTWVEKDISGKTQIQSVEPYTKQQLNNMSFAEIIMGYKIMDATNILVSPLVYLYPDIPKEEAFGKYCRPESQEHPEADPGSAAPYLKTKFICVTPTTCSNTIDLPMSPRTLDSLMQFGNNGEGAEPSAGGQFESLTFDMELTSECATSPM
UniProt Q13547: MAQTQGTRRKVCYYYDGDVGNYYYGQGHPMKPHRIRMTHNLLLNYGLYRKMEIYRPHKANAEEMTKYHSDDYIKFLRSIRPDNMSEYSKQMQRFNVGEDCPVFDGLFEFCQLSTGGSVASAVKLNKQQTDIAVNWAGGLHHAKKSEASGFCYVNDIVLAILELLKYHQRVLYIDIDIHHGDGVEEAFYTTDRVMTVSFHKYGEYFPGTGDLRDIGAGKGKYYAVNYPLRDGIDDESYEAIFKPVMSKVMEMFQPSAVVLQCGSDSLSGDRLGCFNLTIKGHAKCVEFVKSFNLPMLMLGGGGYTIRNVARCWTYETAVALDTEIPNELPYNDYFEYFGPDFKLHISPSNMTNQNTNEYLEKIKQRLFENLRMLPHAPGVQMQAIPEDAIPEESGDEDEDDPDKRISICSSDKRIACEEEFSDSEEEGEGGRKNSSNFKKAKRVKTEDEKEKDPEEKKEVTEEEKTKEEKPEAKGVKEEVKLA

The target in test [1] is T1, Flag-tagged SNAI2 (UniProt O43623).
T1 sequence: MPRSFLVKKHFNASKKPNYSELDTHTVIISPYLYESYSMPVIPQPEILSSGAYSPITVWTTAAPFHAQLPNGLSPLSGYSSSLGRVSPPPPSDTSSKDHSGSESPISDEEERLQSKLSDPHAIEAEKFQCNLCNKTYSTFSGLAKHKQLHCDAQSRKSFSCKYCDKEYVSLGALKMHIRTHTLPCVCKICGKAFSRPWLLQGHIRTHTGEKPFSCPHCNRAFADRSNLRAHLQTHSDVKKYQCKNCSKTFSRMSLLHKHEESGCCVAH
As to the kind of experiment: co-IP; HEK293T cells with Flag-tagged SNAI2 and HA-tagged SUZ12; lysis in Cellytic buffer, antibody overnight at 4 °C, protein A or G Dynabeads, washes with PBS and 0.1% NP40; which protein was precipitated is not told.

The target of test [2] is T2, endogenous SNAI2 (human (endogenous in UM-SCC1)) (UniProt O43623).
T2 sequence: T1 sequence
As to the kind of experiment: co-IP; endogenous proteins in UM-SCC1 cells; IP with SNAI2 and IP with SUZ12; lysis in Cellytic buffer, antibody overnight at 4 °C, protein A or G Dynabeads, washes with PBS and 0.1% NP40.

The target of test [3] is endogenous SUZ12 (human (endogenous in UM-SCC1)) (UniProt Q15022). The description is as above.
Test [4] addresses Signal transducer and activator of transcription 3 (STAT3) (UniProt P40763). As to the kind of experiment: co-IP; STAT3 with SNAI2, SUZ12, HDAC1 and EZH2 (Figure 6E-F); cells and precipitated protein not told; lysis in Cellytic buffer, antibody overnight at 4 °C, protein A or G Dynabeads.

Consider “HA-tagged SUZ12 (from UniProt Q15022 1-739)”, for which the binding entry in test [1] is given as “binds”. As to “endogenous HDAC1 (from UniProt Q13547 1-482)”, the binding entry in test [2] and in test [3] was “binds” each time. With “endogenous SUZ12 (from UniProt Q15022 1-739)”, the binding result in test [2] and in test [4] was “binds” throughout.

B1: endogenous SNAI2 (protein, UniProt O43623 1-268)
chain: T1 sequence
Regarding B1, the binding result in test [3] and in test [4] was “binds” throughout.

For the origin of these results see paper PMC6956807.
